Source: article PMC6148290, “Endogenous metabolites of vitamin E limit inflammation by targeting 5-lipoxygenase” (Nature Communications, 2018)

Tested on: peripheral blood mononuclear cells
Assay: Cell viability of PBMC (MTT assay)
Type: cell-based, human
Conditions: 3 µM; control
Experimental: The formazan product was solubilized with SDS (10% in 20 mM HCl), and absorbance was measured at 570 nm using a Multiskan Spectrum microplate reader (Thermo Fisher Scientific).

For `CN[C@@H]1C[C@H]2O[C@@](C)([C@@H]1OC)n1c3ccccc3c3c4c(c5c6ccccc6n2c5c31)C(=O)NC4` [staurosporine, reference compound], the “inhibition of formazan formation” value was 71.4 ± 6.2 % inhibition.
